In EP2265632B1, “CD4-RELATED POLYPEPTIDES AND METHODS OF USE” (priority 2008, dated 2009):
Not every detail of the peptide structures is certain; ends, links or a residue may be inferred. Where a SMILES comes first, the peptide text is derived from it. [ ]: non-standard residue; d: D form. Sec = N[C@@H](C[SeH])C(=O)O

Tested on: gp120BaL
Assay: Epitope occlusion assay (ELISA): competition with anti-gp120 MAbs for immobilized gp120
Format: binding, HIV-1
Details: CD4bs-directed MAb b12 0.2 nM; 2dCD4 0 to 1 µM or peptides 0 to 1 mM

`CC(C)C[C@H](NC(=O)[C@H](C[SeH])NC(=O)[C@H](CCCNC(=N)N)NC(=O)[C@@H](N)CCCNC(=N)N)C(=O)N[C@@H](Cc1c[nH]c2ccccc12)C(=O)N[C@@H](CC(=O)O)C(=O)N[C@@H](CCC(N)=O)C(N)=O` [Hel-U, RRULWDQ] (H-RR[Sec]LWDQ-NH2) was tested, and the “effect on binding of MAb b12 to gp120” value was “appear to block”.
